# From publication PMC4428273
# Protein sequences, listed by entry. Tags and fused reporters are not part of them. Lines headed by an entry give the natural chain unless they say otherwise; changes in a name come on top. Chains listed by the source or under a name are the forms on record and can include a tag or linker. Residues count along the entry.
# wild-type canine KIT (O97799, residues 28-979): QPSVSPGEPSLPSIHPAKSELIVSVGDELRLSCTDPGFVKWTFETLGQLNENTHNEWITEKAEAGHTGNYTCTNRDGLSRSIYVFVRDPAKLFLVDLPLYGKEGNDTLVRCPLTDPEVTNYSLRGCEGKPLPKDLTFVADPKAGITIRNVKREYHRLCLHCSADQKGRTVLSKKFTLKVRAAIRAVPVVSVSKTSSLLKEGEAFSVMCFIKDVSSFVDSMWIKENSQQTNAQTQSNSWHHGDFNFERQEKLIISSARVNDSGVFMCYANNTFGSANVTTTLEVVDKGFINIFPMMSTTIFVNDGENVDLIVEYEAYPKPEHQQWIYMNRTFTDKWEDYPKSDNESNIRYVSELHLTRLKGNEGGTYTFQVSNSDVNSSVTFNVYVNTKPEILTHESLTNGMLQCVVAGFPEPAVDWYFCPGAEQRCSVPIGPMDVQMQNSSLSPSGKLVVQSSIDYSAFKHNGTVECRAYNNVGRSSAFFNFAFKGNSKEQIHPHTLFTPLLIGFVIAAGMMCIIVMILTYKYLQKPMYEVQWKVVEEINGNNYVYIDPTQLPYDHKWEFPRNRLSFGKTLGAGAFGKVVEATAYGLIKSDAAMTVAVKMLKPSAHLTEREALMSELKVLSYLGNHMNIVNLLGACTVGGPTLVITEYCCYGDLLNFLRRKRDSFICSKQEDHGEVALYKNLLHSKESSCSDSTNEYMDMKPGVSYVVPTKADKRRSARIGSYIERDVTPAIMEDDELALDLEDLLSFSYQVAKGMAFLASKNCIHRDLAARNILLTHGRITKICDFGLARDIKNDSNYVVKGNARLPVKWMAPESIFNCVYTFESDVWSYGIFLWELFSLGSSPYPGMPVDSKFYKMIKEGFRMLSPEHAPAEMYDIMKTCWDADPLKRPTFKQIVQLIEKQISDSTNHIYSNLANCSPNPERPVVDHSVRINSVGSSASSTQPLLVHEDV
# N508I mutant canine KIT (O97799, form named): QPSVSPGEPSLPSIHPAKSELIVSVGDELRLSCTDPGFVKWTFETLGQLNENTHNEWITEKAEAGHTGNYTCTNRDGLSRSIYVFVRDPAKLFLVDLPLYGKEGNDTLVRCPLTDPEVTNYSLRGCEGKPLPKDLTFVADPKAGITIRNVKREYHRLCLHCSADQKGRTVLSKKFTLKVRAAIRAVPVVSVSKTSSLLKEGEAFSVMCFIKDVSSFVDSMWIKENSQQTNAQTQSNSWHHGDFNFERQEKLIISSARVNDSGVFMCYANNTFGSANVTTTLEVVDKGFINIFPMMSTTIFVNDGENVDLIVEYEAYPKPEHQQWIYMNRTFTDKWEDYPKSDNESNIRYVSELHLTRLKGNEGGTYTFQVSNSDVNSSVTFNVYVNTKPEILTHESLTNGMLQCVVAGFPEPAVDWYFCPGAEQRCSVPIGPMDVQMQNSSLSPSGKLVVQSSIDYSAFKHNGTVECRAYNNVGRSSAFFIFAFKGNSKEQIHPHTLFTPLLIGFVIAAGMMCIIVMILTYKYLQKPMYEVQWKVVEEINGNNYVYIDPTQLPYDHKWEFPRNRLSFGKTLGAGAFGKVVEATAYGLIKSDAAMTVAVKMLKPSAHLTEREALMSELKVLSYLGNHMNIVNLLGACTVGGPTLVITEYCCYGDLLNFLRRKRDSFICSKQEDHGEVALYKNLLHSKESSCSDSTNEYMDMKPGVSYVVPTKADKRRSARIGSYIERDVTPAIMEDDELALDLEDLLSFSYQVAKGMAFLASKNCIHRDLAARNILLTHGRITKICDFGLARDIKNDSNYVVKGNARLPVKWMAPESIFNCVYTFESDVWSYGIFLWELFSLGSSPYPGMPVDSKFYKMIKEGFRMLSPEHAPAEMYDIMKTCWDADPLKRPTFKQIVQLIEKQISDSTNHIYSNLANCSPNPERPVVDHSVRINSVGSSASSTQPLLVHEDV
# Results are given in words; binding and its absence hold for the method and conditions named. Binding seen in cells or lysates may run through a third protein. Some entries that bind do so weakly or less than the wild type.
# Columns and labels:
# [1] = target: wild-type canine KIT (canine) (UniProt O97799); assay: cross-linking; intact IC-2 subline cells without SCF, 1 mM BS3 for 30 min at 22°C in PBS; lysates blotted for KIT; in some experiments IC-2^N508I cells were treated for 4 h with STI571 or AMN107 before BS3
# [2] = target: wild-type canine KIT (canine) (UniProt O97799); assay: cross-linking; intact IC-2 subline cells in PBS with 1 mg/mL BSA, 90 min at 4°C with recombinant canine SCF (10 ng/mL; a dose series for IC-2^WT), washed, then 1 mM BS3 for 30 min at 22°C in PBS; lysates blotted for KIT
# [3] = target: N508I mutant canine KIT (canine) (UniProt O97799); assay: cross-linking; intact IC-2 subline cells without SCF, 1 mM BS3 for 30 min at 22°C in PBS; lysates blotted for KIT; in some experiments IC-2^N508I cells were treated for 4 h with STI571 or AMN107 before BS3
# [4] = target: N508I mutant canine KIT (canine) (UniProt O97799); assay: cross-linking; intact IC-2 subline cells in PBS with 1 mg/mL BSA, 90 min at 4°C with recombinant canine SCF (10 ng/mL; a dose series for IC-2^WT), washed, then 1 mM BS3 for 30 min at 22°C in PBS; lysates blotted for KIT
binding [1],binding [2],binding [3],binding [4],Substance
binds weakly,binds,–,–,wild-type canine KIT (from UniProt O97799 28-979) (receptor)
–,–,binds,binds,N508I mutant canine KIT (from UniProt O97799 28-979) (receptor)
